Measurements reported in PubChem BioAssay AID1224828 (NIAID, 2016)

Test: 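Regulators linking TLR4 signalling to p65 nuclear translocation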 (primary screen)
Cell system: mouse RAW264.7 G9 macrophage reporter cells (GFP-p65, Tnf promoter-mCherry)
Reagent: siRNA pool against mouse genes, 100 nM
Timing: 2 days siRNA transfection, then 40 min LPS before fixation
Challenge: LPS (Salmonella minnesota R595) at 10 ng/ml
Measurement: 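Microscopy ratio of nuclear to perinuclear-ring GFP-p65 signal, scaled to the plate median; gene score is the average of two replicate robust z-scores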
Scale: p65 translocation robust z-score: higher = more nuclear NF-kappaB p65 after LPS than the plate median; nuclear/cytoplasmic p65 ratio: higher = more nuclear NF-kappaB p65
Rule for the call: 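Called active when z exceeds 3.3 or falls under -1.56 (median of Tlr4 controls), giving activity score of at least 50; no calls for control wells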
Calls: active = hit (p65 shift raised or lowered); inactive = no clear change
Here is one part, drawn at random, of about 17,000 deposited reagents. In the full data, 762 (4.5%) got an active call. 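Active calls include both raised and lowered p65 entry, mostly lowered; wells with fewer than 50 cells lack a z-score.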 Raw values vary from plate to plate and are shown uncorrected. Reagents against one gene are numbered here.

gene symbol	reagent	p65 translocation robust z-score	nuclear/cytoplasmic p65 ratio, rep 1	nuclear/cytoplasmic p65 ratio, rep 2	low cell count flag	Call
Tmx2	1	-1.07	1.3	1.1	enough cells to score	inactive
Ccdc91	1	-0.03	1.35	1.42	enough cells to score	inactive
Rsph9	1	0.78	1.49	1.45	enough cells to score	inactive
Morc2b	1		1.32	1	fewer than 50 cells per well; well left out of scoring	inactive
Esco2	1		1.49	1.41	fewer than 50 cells per well; well left out of scoring	inactive
Tmem138	1		1.25	1.74	fewer than 50 cells per well; well left out of scoring	inactive
Ero1a	1	-0.76	1.38	1.25	enough cells to score	inactive
Vmn2r122	1	-1.23	1.39	1.11	enough cells to score	inactive
Vmn2r122	2	-0.26	1.4	1.2	enough cells to score	inactive
Fcer1a	1	-0.26	1.41	1.35	enough cells to score	inactive
Caly	1	0.2	1.65	1.27	enough cells to score	inactive
Fmod	1	-0.09	1.42	1.38	enough cells to score	inactive
Cog6	1	0.7	1.65	1.93	enough cells to score	inactive
Fam187a	1		1.39	1.34	fewer than 50 cells per well; well left out of scoring	inactive
Rpl7a	1		1.7	1.24	fewer than 50 cells per well; well left out of scoring	inactive
Ppp1r15a	1	2.06	1.67	1.65	enough cells to score	inactive
Shd	1		1.11	1.27	fewer than 50 cells per well; well left out of scoring	inactive
Tnfaip8l1	1	-0.71	1.29	1.38	enough cells to score	inactive
Snai3	1		1.31	1.08	fewer than 50 cells per well; well left out of scoring	inactive
Lynx1	1	0.93	1.91	1.64	enough cells to score	inactive
Nup50	1	-1.34	1.54	1.31	enough cells to score	inactive

6 of these entries, set out differently.
Tmem138 → nuclear/cytoplasmic p65 ratio, rep 1: 1.25; nuclear/cytoplasmic p65 ratio, rep 2: 1.74; low cell count flag: fewer than 50 cells per well; well left out of scoring; Call: inactive
Ero1a → p65 translocation robust z-score: -0.76; nuclear/cytoplasmic p65 ratio, rep 1: 1.38; nuclear/cytoplasmic p65 ratio, rep 2: 1.25; low cell count flag: enough cells to score; Call: inactive
Vmn2r122 #1 → p65 translocation robust z-score: -1.23; nuclear/cytoplasmic p65 ratio, rep 1: 1.39; nuclear/cytoplasmic p65 ratio, rep 2: 1.11; low cell count flag: enough cells to score; Call: inactive
Vmn2r122 #2 → p65 translocation robust z-score: -0.26; nuclear/cytoplasmic p65 ratio, rep 1: 1.4; nuclear/cytoplasmic p65 ratio, rep 2: 1.2; low cell count flag: enough cells to score; Call: inactive
Fcer1a → p65 translocation robust z-score: -0.26; nuclear/cytoplasmic p65 ratio, rep 1: 1.41; nuclear/cytoplasmic p65 ratio, rep 2: 1.35; low cell count flag: enough cells to score; Call: inactive
Caly → p65 translocation robust z-score: 0.2; nuclear/cytoplasmic p65 ratio, rep 1: 1.65; nuclear/cytoplasmic p65 ratio, rep 2: 1.27; low cell count flag: enough cells to score; Call: inactive

More records follow.
gene symbol	reagent	p65 translocation robust z-score	nuclear/cytoplasmic p65 ratio, rep 1	nuclear/cytoplasmic p65 ratio, rep 2	low cell count flag	Call
Atg10	1	-1.16	1.45	1.33	enough cells to score	inactive
Zswim1	1		1.54	1.13	fewer than 50 cells per well; well left out of scoring	inactive
Syne3	1		1.12	1.14	fewer than 50 cells per well; well left out of scoring	inactive
Bpifb1	1		1.28	1.08	fewer than 50 cells per well; well left out of scoring	inactive
Rp2	1	1.69	1.91	1.62	enough cells to score	inactive
Melk	1	0.38	1.57	1.56	enough cells to score	inactive
Aoc2	1	-0.98	1.42	1.58	enough cells to score	inactive
Htr1d	1	-0.23	1.5	1.52	enough cells to score	inactive
Sdk2	1		1.33	1.38	fewer than 50 cells per well; well left out of scoring	inactive
Ptk7	1	1.31	1.81	1.61	enough cells to score	inactive
Cygb	1	0.77	1.68	1.92	enough cells to score	inactive
Hepacam	1	1.05	1.37	1.38	enough cells to score	inactive
Pitrm1	1	0.02	1.49	1.42	enough cells to score	inactive
Pds5b	1	-0.64	1.52	1.52	enough cells to score	inactive
Syt17	1	-0.02	1.42	1.53	enough cells to score	inactive
Nrep	1	-0.19	1.57	1.73	enough cells to score	inactive
Hsd17b6	1		1.47	1.36	fewer than 50 cells per well; well left out of scoring	inactive
H3c1	1	0.89	1.58	1.68	enough cells to score	inactive
Mettl15	1	-0.36	1.45	1.4	enough cells to score	inactive
